This is one part of the list.
These compounds were tested on T1, CTL2-GFP (C. trachomatis L2/434/Bu, GFP-expressing). Conditions: bulk GFP, single well; 28.5 h, 10 µM; inhibitor.
T1 construct: L2/434/Bu, GFP-expressing
Design: species or system HeLa; Intracellular C. trachomatis growth in HeLa cells, bulk GFP fluorescence relative to DMSO
`O=C(Cc1ccc(Cl)cc1Cl)Nc1ccc2ncccc2c1` [CBK159787] was tested, and the “% of control remaining” value was 111.495%. With `Cc1ccccc1OCC(=O)Nc1ccc(CSc2ccccc2)cc1` [CBK264651] the “% of control remaining” value was 102.222%. In the case of `CC(=O)N1CCC[C@@H](N)[C@@H]1c1ccccc1F` [CBK281562], the “% of control remaining” value is reported as 107.62%. With `CCOC(=O)c1cccc(NS(=O)(=O)c2c(C)noc2C)c1` [CBK034339] the “% of control remaining” value was 130.513%. `CCN1C(=O)c2ccccc2C(=O)[C@@]2(C)CN(C)C[C@@H]12` [CBK283478] was tested, and the “% of control remaining” value was 150.732%. In the case of `Cc1ccc(Cl)cc1-n1cc(-c2ccc(F)cc2F)nn1` [CBK112995], the “% of control remaining” value is reported as 123.988%. In the case of `CCn1c(C)nc2cc(NC(=O)Cn3cccn3)ccc21` [CBK281828], the “% of control remaining” value is reported as 138.164%. With `CN1CCN(c2nccnc2-c2cccc(F)c2)CC1` [CBK036876] the “% of control remaining” value was 109.461%. With `COc1nccnc1OC1CCN(CC2CCCCC2)CC1` [CBK084263] the “% of control remaining” value was 103.538%. `CN1CCN(C(=O)c2cccc(-c3ncc(OCC(F)(F)F)nc3N)c2)CC1` [CBK145196] was tested, and the “% of control remaining” value was 102.557%. In the case of `Cc1ccc(/C=C/C(=O)N2CCC3(CC2)CC(=O)c2cc(Cl)ccc2O3)cc1` [CBK156439], the “% of control remaining” value is reported as 125.373%. For `COc1ccccc1N1CCn2c1nc1c2c(=O)n(CCN2CCOCC2)c(=O)n1C` [CBK269265], the “% of control remaining” value was 169.935%. With `O=C1CC[C@H](NC(=O)c2cccs2)C(c2cccnc2)N1` (stereo partly drawn) [CBK282901] the “% of control remaining” value was 118.539%. For `Cc1nc(N)sc1-c1nnc(SC/C=C/c2ccccc2)n1C` [CBK269383], the “% of control remaining” value was 154.711%. With `Cc1nnc(CCNC(=O)c2cccc(C#N)c2)n1C` [CBK306017] the “% of control remaining” value was 103.934%. `S=c1n(CN2CCC(c3ccccc3)CC2)nc(Cc2ccccc2)n1-c1ccccc1` [CBK265037] was tested, and the “% of control remaining” value was 113.733%. In the case of `CN1CCC2CN(CCCC(c3ccc(F)cc3)c3ccc(F)cc3)CCN2C1=O` (stereo not drawn) [CBK024865C], the “% of control remaining” value is reported as 98.0555%. `Cn1cc(C(=O)OCc2cccc(S(=O)(=O)N3CCOCC3)c2)cn1` [CBK305721] was tested, and the “% of control remaining” value was 109.397%. With `CC(C)C1OC(NCc2ccc(Cl)cc2)=NC1=O` (stereo not drawn) [CBK070352] the “% of control remaining” value was 161.381%. `Cc1nc(N)nc(NCCC2CCCOC2)c1Cl` (stereo not drawn) [CBK307353] was tested, and the “% of control remaining” value was 114.075%. `CSc1ccccc1NC(=O)Cn1c(-c2nonc2N)nc2ccccc21` [CBK266919] was tested, and the “% of control remaining” value was 152.51%. For `CC(=O)N1CCc2c(sc(NC(=O)c3ccc(C)cc3)c2C#N)C1` [CBK304411], the “% of control remaining” value was 87.7997%. `O=[N+]([O-])c1cccc(C(Nc2cccnc2)c2cc(Cl)c3cccnc3c2O)c1` (stereo not drawn) [CBK268629] was tested, and the “% of control remaining” value was 36.9767%. In the case of `CCCCC(=O)N1CCC2(CC1)CC(=O)c1ccc(OCc3ccccc3)c(C)c1O2` [CBK156493], the “% of control remaining” value is reported as 73.0984%. `CCNC(=O)N1CC2(CCN(Cc3csc(C)n3)CC2)c2ccccc21` [CBK126712] was tested, and the “% of control remaining” value was 96.8439%. With `Cc1ccccc1Nc1nc(N)nc(CN2CCCC(C(F)(F)F)C2)n1` (stereo not drawn) [CBK305073] the “% of control remaining” value was 40.8429%. With `CCCCOc1ccc(-c2nnn(C(C)C(=O)OCC)n2)cc1` (stereo not drawn) [CBK068558] the “% of control remaining” value was 115.219%. For `O=C(Nc1sc2c(c1C(=O)NCc1cccnc1)CCCC2)c1sc2ccccc2c1Cl` [CBK266334], the “% of control remaining” value was 123.224%. `N/C(CC(=O)Nc1cc(Cl)cc(Cl)c1)=N\O` [CBK228614] was tested, and the “% of control remaining” value was 107.81%. With `O=C(C[S+]([O-])c1ccc(C(F)(F)F)cc1[N+](=O)[O-])Oc1cccc2cccnc12` (stereo not drawn) [CBK266716] the “% of control remaining” value was 121.745%. For `c1ccc2c(CCN3CCC[C@@H]3CN3CCCC3)c[nH]c2c1` [CBK149104], the “% of control remaining” value was 119.36%. For `COc1cc(CNc2nccnc2-c2cccnc2)cc(OC)c1` [CBK038061], the “% of control remaining” value was 89.1487%. In the case of `O=P(O)(CNCc1ccccc1)CNCc1ccccc1` [CBK261604C], the “% of control remaining” value is reported as 91.6986%. With `Cc1nccn1CCNC(=O)Cn1cnc2ccccc21` [CBK281983] the “% of control remaining” value was 138.895%. `CCN1CC2(CCN(Cc3ccc4nsnc4c3)CC2)c2ccccc21` [CBK136994] was tested, and the “% of control remaining” value was 142.311%. With `CCOc1ccc(/N=N\c2ccc(O)c(/C=N\Nc3ccc([N+](=O)[O-])cc3)c2)cc1` [CBK262111] the “% of control remaining” value was 112.309%. With `CCCCSc1nc(N)cc(N2CCCC(N3CCCC3=O)C2)n1` (stereo not drawn) [CBK306995] the “% of control remaining” value was 127.93%. For `COc1ncc(-c2cncc(N3CCN(CCO)CC3)n2)c(OC)n1` [CBK065146], the “% of control remaining” value was 188.975%. `CCNC(=O)C1CCN(Cc2nc(-c3cc(OC)ccc3F)oc2C)C1` (stereo not drawn) [CBK307040] was tested, and the “% of control remaining” value was 115.252%. For `O=C(O)C1C2CCC(CC2)C1C(=O)N1CCN(Cc2ccccc2Cl)CC1` (stereo not drawn) [CBK270336], the “% of control remaining” value was 133.096%. With `c1ccc(SCc2csc(-c3ccc4c(c3)OCO4)n2)nc1` [CBK270294] the “% of control remaining” value was 158.518%. `CCn1c(=O)n(CC(=O)N2CCC(C)CC2)c2cccnc21` [CBK283895] was tested, and the “% of control remaining” value was 187.015%. For `COCCNc1nc2c([nH]1)c(=O)n(C)c(=O)n2C` [CBK288104], the “% of control remaining” value was 120.605%. With `CCCc1cc(O)nc(SCC(=O)Nc2ccc(Cl)cc2Cl)n1` [CBK265147] the “% of control remaining” value was 134.514%. In the case of `CC(=O)NCc1ccc(-c2cc(CN(C)C)n(C)n2)cc1` [CBK281667], the “% of control remaining” value is reported as 108.873%. In the case of `CC(=O)Nc1ccc(-c2cncc(N3CCN(CCN4CCCC4)CC3)n2)cc1` [CBK065710], the “% of control remaining” value is reported as 180.76%. In the case of `Cc1cc(C)c(C)c(CSCc2nc3ccccc3[nH]2)c1C` [CBK266466], the “% of control remaining” value is reported as 130.721%. For `Cc1nn(C)c(Cl)c1S(=O)(=O)NC1(c2ccc(F)cc2)CC1` [CBK282800], the “% of control remaining” value was 117.159%. `O=C(Cc1ccccc1Cl)N1CCC(O)(c2cccnc2F)CC1` [CBK284360] was tested, and the “% of control remaining” value was 72.234%. With `O=C1CCCN1c1ccc(S(=O)(=O)N(c2ccccc2)C2CCNCC2)cc1` [CBK165122T] the “% of control remaining” value was 100.814%. `CC(C)(CSc1ccccn1)NS(=O)(=O)c1ccccc1` [CBK268513] was tested, and the “% of control remaining” value was 96.5731%. For `CCN1CCCC1CNC(=O)c1ccc(-c2ccc(OC)cc2)nc1N(C)C(C)=O` (stereo not drawn) [CBK076491], the “% of control remaining” value was 146.09%. For `Cc1cc(Sc2ncnc(N)c2[N+](=O)[O-])ncn1` [CBK267235], the “% of control remaining” value was 44.3209%. With `COc1ccccc1CC(=O)N[C@@H]1CCN(Cc2cccnc2)C[C@H]1O` [CBK307200] the “% of control remaining” value was 159.53%. For `COc1ccc(Cl)cc1N1CCN(CC2CCCCC2)CC1` [CBK138336], the “% of control remaining” value was 120.669%. With `CC(C)c1nnc(NS(=O)(=O)Cc2ccccc2)s1` [CBK045540] the “% of control remaining” value was 117.213%. For `COc1ccc(CCN2C(=O)/C(=C\c3c(NCCO)nc4c(C)cccn4c3=O)SC2=S)cc1` [CBK265566], the “% of control remaining” value was 100%. `CN(C)CC(=O)NCc1ccc(-c2nc(-c3ccc(C#N)cc3)cnc2N)cc1` [CBK116506] was tested, and the “% of control remaining” value was 118.871%. For `COCCNc1cc(-c2ccc(F)c(F)c2)ncn1` [CBK090800], the “% of control remaining” value was 144.628%. `Cc1ncc(C(=O)NC2(c3cccc(F)c3)CCCC2)c(C)n1` [CBK283273] was tested, and the “% of control remaining” value was 103.3%. In the case of `CCOc1ccc(NC(=O)Nc2ccc(CC(=O)O)cc2)cc1` [CBK266945], the “% of control remaining” value is reported as 129.98%. `CCn1nc(C)c(CN(C)Cc2nc3ccccc3[nH]2)c1C` [CBK282126] was tested, and the “% of control remaining” value was 118.897%. With `O=C(O)c1cc(NC(=O)c2cccc(F)c2)cc(NC(=O)c2cccc(F)c2)c1` [CBK262800] the “% of control remaining” value was 138.528%. For `COc1ccccc1OCC(=O)Nc1cc(C)nc2ccccc12` [CBK122728], the “% of control remaining” value was 102.203%. In the case of `COCCN(CCOC)C(=O)COc1c(Cl)cc(C(=O)O)cc1Cl` [CBK296704], the “% of control remaining” value is reported as 121.679%. In the case of `CNC(=O)c1sc2ccccc2c1C1CCN(Cc2ccc(Oc3ncccn3)cc2)C1` (stereo not drawn) [CBK285881], the “% of control remaining” value is reported as 136.529%. `O=C(O)[C@H]1CN(C(=O)c2cccs2)C[C@@H]1c1ccccc1F` [CBK283819] was tested, and the “% of control remaining” value was 138.472%. With `CCCCC1CCC(C(=O)Oc2ccccc2OCCO)CC1` (stereo not drawn) [CBK081498] the “% of control remaining” value was 93.1666%. In the case of `O=C(Cc1ccc(F)cc1F)N1CCC(Sc2ccc(-c3ccccc3)cc2)CC1` [CBK131950], the “% of control remaining” value is reported as 93.4991%. With `Cn1c2c(c(=O)n(C)c1=O)[C@@H]1C(C[C@](O)(CO)[C@H]1O)C1(CCC1)N2` (stereo partly drawn) [CBK303264] the “% of control remaining” value was 103.709%. `Cc1nc2c(c(=O)[nH]1)CN(Cc1c[nH]c3ccccc13)CC2` [CBK282327] was tested, and the “% of control remaining” value was 106.833%. For `CC(C)NC(=O)CN(CCO)Cc1cc(Br)ccc1F` [CBK304944], the “% of control remaining” value was 110.935%. For `Cn1cc(C(CC(=O)O)C(=O)O)c2ccccc21` (stereo not drawn) [CBK266231], the “% of control remaining” value was 126.901%. For `COc1ncc(-c2nccnc2NCc2cccc(Cl)c2)c(OC)n1` [CBK037990], the “% of control remaining” value was 172.816%. For `Cc1ccccc1N1C(=O)c2ccc(Br)cc2C1=O` [CBK022430], the “% of control remaining” value was 108.867%. In the case of `O=C(NCCCO)c1ccc(/C=N/O)nc1` [CBK264560], the “% of control remaining” value is reported as 122.541%. In the case of `Cc1noc(C)c1NC(=O)c1n[nH]c2ccccc12` [CBK200301], the “% of control remaining” value is reported as 111.196%. `Cc1ccc(CCNC(=O)c2snnc2C)cc1C` [CBK282051] was tested, and the “% of control remaining” value was 100.36%. For `O=C(O)c1nccnc1C(=O)NCCc1c[nH]c2ccc(Cl)cc12` [CBK286630], the “% of control remaining” value was 96.3074%. In the case of `O=CNCCCc1nc2ccccc2n1CCc1ccccc1` [CBK269393], the “% of control remaining” value is reported as 120.611%. For `CC(C)NC(=O)NC(=O)C1CCN(CCCc2ccc(Cl)c(Cl)c2)CC1` [CBK034947], the “% of control remaining” value was 141.521%.

Source: PMC12040169 (PLOS Biology, 2025)
